Among all 31,000 sequences or so, about 1,400 (4.5%) were called active.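 Rule for the calls: active = median seed-adjusted z-score above 1 or below -1; inactive = the rest.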 The list shows a part of the results.
assay: Novel Modifiers of Survival Motor Neuron (SMN) Protein: Gene Identification via Genome-wide siRNA Screen; conditions: HEK293T SMN2-luciferase reporter, siRNA knockdown, 72 h; actives lie on both sides;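 note: luminescence tracks full-length SMN protein made from the SMN2 reporter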
Summary of the method: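 Luciferase signal, proportional to full-length SMN made from an SMN2 cDNA reporter in stable HEK293T cells, was read 72 h after siRNA reverse transfection. Values were expressed as MAD scores after non-targeting-control normalization and log10 conversion; seed analysis flagged off-targets.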

**Q.** With CCACUAUGGUGACCACGUUTT against S100A5 as the sequence, how does the median seed-adjusted z-score read?
**A.** inactive: 0.418

**Q.** Which median seed-adjusted z-score does the source give for GGAGGACUCAUGUUCAACATT against DIMT1L here?
**A.** inactive: 0.0156

**Q.** With GGCUUCACAGGAACCUAUUTT against NOTCH3 as the sequence, how does the median seed-adjusted z-score read?
**A.** inactive: 0.395

**Q.** Which median seed-adjusted z-score does the source give for AAAUCAAGGCGGCUUACUATT against DNAJC30 here?
**A.** inactive: 0.329

**Q.** Which median seed-adjusted z-score does the source give for GGUAAAGAAUUCUCCGGAATT against FUS here?
**A.** inactive: 0.92

**Q.** Which median seed-adjusted z-score does the source give for GAGCAUGGGUGGUAAAGUATT against ST13 here?
**A.** inactive: 0.286

**Q.** For CAAUAUGAACACUUCCGAATT against MED31, which median seed-adjusted z-score is on record?
**A.** inactive: -0.267

**Q.** With CACUUCCUGCUGAACCUGATT against ADAMTS10 as the sequence, how does the median seed-adjusted z-score read?
**A.** inactive: 0.856

**Q.** Which median seed-adjusted z-score does the source give for GUCUCCAGCUUAAACAGGATT against SIRT6 here?
**A.** inactive: 0.0126

**Q.** With GGAUAAGACAGUAACCCGATT against LRIG2 as the sequence, how does the median seed-adjusted z-score read?
**A.** inactive: 0.386

**Q.** For CGUUGCAAUGGAUAAGUUUTT against B4GALT1, which median seed-adjusted z-score is on record?
**A.** inactive: 0

**Q.** With GCAUGUACACCAUCCCGCUTT against RNPEPL1 as the sequence, how does the median seed-adjusted z-score read?
**A.** inactive: 0

**Q.** For CAACCAGAGCAGUUCGACUTT against ATAD3A, which median seed-adjusted z-score is on record?
**A.** inactive: -0.283

**Q.** With CCUGUGCAAUCAUAGGAGATT against ARL4A as the sequence, how does the median seed-adjusted z-score read?
**A.** inactive: -0.572

**Q.** Which median seed-adjusted z-score does the source give for UGACCCAGAUUAUCGCCGATT against POLR2I here?
**A.** active: -3.27

**Q.** With GAACUGCGAUUGAAUAACATT against SLIT1 as the sequence, how does the median seed-adjusted z-score read?
**A.** inactive: 0.12

**Q.** For CCCAAAUGAUAAUUCCAAATT against SLC45A3, which median seed-adjusted z-score is on record?
**A.** inactive: -0.0257

**Q.** For GCUGGUUUAUCCUCACAGATT against PSCD2, which median seed-adjusted z-score is on record?
**A.** inactive: -0.126

**Q.** With GAAUGUCUCUAAGGACGUATT against MYO18B as the sequence, how does the median seed-adjusted z-score read?
**A.** inactive: -0.597

**Q.** For UACCUGUGGUCAUUCCUUATT against HHATL, which median seed-adjusted z-score is on record?
**A.** inactive: 0.497

**Q.** For GGAAAGCGGCAAAAGUUAATT against RNF39, which median seed-adjusted z-score is on record?
**A.** inactive: 0.297

**Q.** With GAAACUGUUUGACAGCAUUTT against GNAI3 as the sequence, how does the median seed-adjusted z-score read?
**A.** inactive: 0.0656

**Q.** For CUAUCAUGCUAAAGCGUAUTT against RBM6, which median seed-adjusted z-score is on record?
**A.** inactive: 0.193

**Q.** For GGAUCGACCCAACCUAUGUTT against XYLT2, which median seed-adjusted z-score is on record?
**A.** inactive: 0.148

**Q.** Which median seed-adjusted z-score does the source give for GCUUGAGAACUACCAGGUUTT against TAL2 here?
**A.** inactive: -0.395

**Q.** For GGAUAACCUCAAUAACUAUTT against GRIN2A, which median seed-adjusted z-score is on record?
**A.** inactive: 0.025

**Q.** For GAUCCAACCAUUGAAGAUUTT against RRAS2, which median seed-adjusted z-score is on record?
**A.** inactive: -0.0229

**Q.** With UCCUCUUCGGACUCAAUAATT against DRD2 as the sequence, how does the median seed-adjusted z-score read?
**A.** inactive: -0.0273

**Q.** For GGACAAGUGUAACCUUUAATT against SCUBE2, which median seed-adjusted z-score is on record?
**A.** inactive: 0.452

**Q.** Which median seed-adjusted z-score does the source give for CAUCAACCGUAAUAGCAUUTT against FBXL6 here?
**A.** inactive: -0.182

**Q.** For GCCUAUCGAUUUGGUGAUATT against MEIS1, which median seed-adjusted z-score is on record?
**A.** inactive: 0

**Q.** For ACUUGAACUUAAUACAGCATT against ARID1B, which median seed-adjusted z-score is on record?
**A.** inactive: 0.108

**Q.** With GGAUAAUGGAGAACUCAGATT against NSFL1C as the sequence, how does the median seed-adjusted z-score read?
**A.** inactive: -0.0899

**Q.** With AAGAAGGUCUGGUACGACATT against ZMAT5 as the sequence, how does the median seed-adjusted z-score read?
**A.** inactive: 0.292

**Q.** With GCAGUGACAUGUACGAGAATT against SIVA1 as the sequence, how does the median seed-adjusted z-score read?
**A.** inactive: 0.0451

**Q.** With GAACAUGGACAUUAUCGUUTT against THNSL2 as the sequence, how does the median seed-adjusted z-score read?
**A.** inactive: 0

**Q.** For CAGAUUACGUGGAACAGGATT against EFTUD2, which median seed-adjusted z-score is on record?
**A.** active: -1.25

**Q.** For CCACCUUCAAAUUUGAAGATT against ATP5J, which median seed-adjusted z-score is on record?
**A.** inactive: 0.242

**Q.** For GCAUUUCCACUAAGUUUGATT against BCS1L, which median seed-adjusted z-score is on record?
**A.** inactive: 0.167

**Q.** With CCACCUAAAAGGCAACCAATT against GALNT1 as the sequence, how does the median seed-adjusted z-score read?
**A.** inactive: -0.164

**Q.** Which median seed-adjusted z-score does the source give for GGAAGGCUCCAAACGGAAATT against PBRM1 here?
**A.** inactive: -0.118

**Q.** Which median seed-adjusted z-score does the source give for GAACGAGUGAAGAAGUUAATT against SYNCRIP here?
**A.** inactive: -0.192

**Q.** With CCAUCAAGCAAUACAAUUATT against CDKN3 as the sequence, how does the median seed-adjusted z-score read?
**A.** inactive: -0.03

**Q.** Which median seed-adjusted z-score does the source give for GAAAACCGAUGAACUUAGATT against DEK here?
**A.** inactive: 0.374

**Q.** Which median seed-adjusted z-score does the source give for GGAGGACUGUAUCGCCUAUTT against MINK1 here?
**A.** inactive: -0.522

**Q.** Which median seed-adjusted z-score does the source give for GCACCUUCAGAAUCAGAGATT against SMYD3 here?
**A.** inactive: 0.1

**Q.** With GGACCCAGCAUAAUGAUUATT against CEBPE as the sequence, how does the median seed-adjusted z-score read?
**A.** inactive: -0.259

**Q.** With GGAUCAAGCUGCCCAUCUATT against AQP3 as the sequence, how does the median seed-adjusted z-score read?
**A.** inactive: -0.0863

**Q.** Which median seed-adjusted z-score does the source give for GAGAUCAAGCUGUACAGUATT against SIM2 here?
**A.** inactive: -0.19

**Q.** For GAUUCUUUAGGGUAUAGCATT against ABHD7, which median seed-adjusted z-score is on record?
**A.** inactive: -0.301

**Q.** Which median seed-adjusted z-score does the source give for GAAUCUAGUCUGCAUGAAATT against ZNF192 here?
**A.** inactive: 0

**Q.** Which median seed-adjusted z-score does the source give for GGAAUUAGGAGAAGGCAAATT against CYP7A1 here?
**A.** inactive: -0.0092

**Q.** Which median seed-adjusted z-score does the source give for UGACGGUCCUACUACUGAATT against EFNB1 here?
**A.** inactive: -0.448

**Q.** For CGCAUCAAAUGGUCUAAGATT against VCAN, which median seed-adjusted z-score is on record?
**A.** inactive: 0.0927

Source: PubChem BioAssay AID1347426 (Functional Genomics Laboratory (NCATS/FGL), 2020)
